The list is a part of this screen's results and no random one: it gathers tests that were run many times, whatever their T/C, doses with no T/C, and many T/C values between a quarter and a half above the control. Further doses and runs are listed elsewhere. T/C is the treated group as % of the vehicle group. Some doses have a count of surviving animals in place of a T/C: the source holds a T/C of zero for them, seemingly a mark for toxic or unscored doses. Some survivor counts are full or nearly so, which does not show that the dose was tolerated: survival well below the control is almost never listed, so the zero probably covers shortened survival too. Counts of survivors are from the toxicity check (mostly the fifth day) where no day follows; animals may have died later. Schedules are NCI's codes, taken here to give the interval after Q, in days (D) or hours (H), and the number of doses after X. Some schedules carry Z or #; the key to these is not given. Some structures stand for samples that the source files as different forms (salt, stereo form or complex); doses refer to the form tested. Where survival is the endpoint, this PubChem deposit counts one and a half times the control or more as active, and values a quarter to a half above the control carry no call in these data; other NCI protocols may use other cut-offs.
System: L1210 leukemia ip in BDF1 mice, survival T/C
Assay: NCI In Vivo Anticancer Drug Screen. Data for tumor model L1210 Leukemia (intraperitoneal) in B6D2F1 (BDF1) mice
Details: T/C endpoint: mean survival time, higher T/C = longer survival
[1] = dose: 400.0 mg/kg/injection, schedule: Q04DX003 (ip), vehicle: water
[2] = dose: 400.0 mg/kg/injection, schedule: Q01DX009 (ip), vehicle: acetone
[3] = dose: 200.0 mg/kg/injection, schedule: Q01DX009 (ip), vehicle: Klucel (hydroxypropylcellulose) (HPC)
[4] = dose: 400.0 mg/kg/injection, schedule: Q04DX003 (ip), vehicle: saline
[5] = dose: 400.0 mg/kg/injection, schedule: Q04DX003 (ip), vehicle: Klucel (hydroxypropylcellulose) (HPC)
[6] = dose: 100.0 mg/kg/injection, schedule: Q01DX009 (ip), vehicle: saline with Tween-80
[7] = dose: 300.0 mg/kg/injection, schedule: Q01DX001 (ip), vehicle: saline
[8] = dose: 400.0 mg/kg/injection, schedule: Q01DX009 (ip), vehicle: Klucel (hydroxypropylcellulose) (HPC)
[9] = dose: 400.0 mg/kg/injection, schedule: Q01DX001 (ip), vehicle: carboxymethylcellulose (CMC)

Cn1cc(/C=C\C(=O)O)c2nccnc21
survivor count [1]: 2 of 6

CC1(C)/C(=C\C(=O)O)C2C=CC1C2 (configuration not stated)
survivor count [2]: 2 of 6

Nc1cc(C(=O)O)c(O)c(Cl)c1O
survivor count (dose: 100.0 mg/kg/injection, schedule: Q04DX003 (ip), vehicle: saline with Tween-80): 4 of 6 | survivor count (dose: 200.0 mg/kg/injection, schedule: Q04DX003 (ip), vehicle: saline with Tween-80): 1 of 6 | survivor count (dose: 400.0 mg/kg/injection, schedule: Q04DX003 (ip), vehicle: saline with Tween-80): 0 of 6

N=C(N)Sc1cc(O)ccc1O
survivor count (dose: 400.0 mg/kg/injection, schedule: Q04DX003 (ip), vehicle: alcohol): 4 of 6

CC(C)=C1C2CCC1C1C(=O)OC(=O)C21 (configuration not stated)
survivor count [3]: 4 of 6 | survivor count (dose: 400.0 mg/kg/injection, schedule: Q01DX001 (ip), vehicle: Klucel (hydroxypropylcellulose) (HPC)): 2 of 6

COc1ccc(COC(=O)NC2CCCCC2)cc1OC
T/C (dose: 100.0 mg/kg/injection, schedule: Q01DX009 (ip), vehicle: saline): 128 % of control

CC(=O)N1CCC(CC(O)Cc2ccnc3ccccc23)CC1 (configuration not stated)
survivor count [4]: 0 of 6

C=CCc1c[nH]c(=O)[nH]c1=O.[Hg]
survivor count (dose: 50.0 mg/kg/injection, schedule: Q01DX009 (ip), vehicle: Klucel (hydroxypropylcellulose) (HPC)): 0 of 6 | survivor count (dose: 100.0 mg/kg/injection, schedule: Q04DX003 (ip), vehicle: Klucel (hydroxypropylcellulose) (HPC)): 0 of 6 | survivor count (dose: 200.0 mg/kg/injection, schedule: Q04DX003 (ip), vehicle: Klucel (hydroxypropylcellulose) (HPC)): 5 of 6 | survivor count [5]: 0 of 6

Nc1[nH]c(=S)[nH]c(=O)c1N
survivor count (dose: 100.0 mg/kg/injection, schedule: Q04DX003 (ip), vehicle: saline): 3 of 6 | survivor count (dose: 200.0 mg/kg/injection, schedule: Q04DX003 (ip), vehicle: saline): 3 of 6 | survivor count [4]: 0 of 6 | survivor count (dose: 500.0 mg/kg/injection, schedule: Q01DX Z (ip), vehicle: methylcellulose (MC)): 0 of 6

O=C(O)C(C(=O)c1cccc([N+](=O)[O-])c1)C(=O)c1cccc([N+](=O)[O-])c1
survivor count (dose: 100.0 mg/kg/injection, schedule: Q01DX001 (ip), vehicle: carboxymethylcellulose (CMC)): 4 of 4

O=CNNc1ccccc1
survivor count [5]: 4 of 6

COc1ccc(N2C(=O)C=CC2=O)cc1
survivor count (dose: 100.0 mg/kg/injection, schedule: Q01DX001 (ip), vehicle: saline with Tween-80): 0 of 3 | survivor count (dose: 200.0 mg/kg/injection, schedule: Q01DX001 (ip), vehicle: saline with Tween-80): 0 of 3 | survivor count (dose: 400.0 mg/kg/injection, schedule: Q01DX001 (ip), vehicle: saline with Tween-80): 0 of 3

CC1(C)CCC(NC(=O)N(CCF)N=O)CC1
T/C (dose: 20.0 mg/kg/injection, schedule: Q01DX001 (ip), vehicle: other): 141 % of control | survivor count (dose: 112.0 mg/kg/injection, schedule: Q01DX001 (ip), vehicle: other): 6 of 10 | survivor count (dose: 168.0 mg/kg/injection, schedule: Q01DX001 (ip), vehicle: other): 0 of 10

ClC1=NC(Cl)(Cl)C(Cl)=C1Cl
survivor count (dose: 50.0 mg/kg/injection, schedule: Q04DX002 (ip), vehicle: saline with Tween-80): 0 of 3 | survivor count (dose: 100.0 mg/kg/injection, schedule: Q04DX002 (ip), vehicle: saline with Tween-80): 0 of 3 | survivor count (dose: 200.0 mg/kg/injection, schedule: Q04DX002 (ip), vehicle: saline with Tween-80): 0 of 3

NCCCNCCCN
survivor count (dose: 200.0 mg/kg/injection, schedule: Q04DX002 (ip), vehicle: Klucel (hydroxypropylcellulose) (HPC)): 0 of 3 | survivor count (dose: 400.0 mg/kg/injection, schedule: Q04DX002 (ip), vehicle: Klucel (hydroxypropylcellulose) (HPC)): 0 of 3

COC(=O)c1c(C(=O)c2ccccc2)nn2c(-c3ccccc3)c(-c3ccccc3)c(-c3ccccc3)c(-c3ccccc3)c12
survivor count (dose: 100.0 mg/kg/injection, schedule: Q01DX001 (ip), vehicle: saline): 3 of 3

c1ccc(-c2cc[s+]s2)cc1
survivor count [6]: 0 of 6 | survivor count (dose: 100.0 mg/kg/injection, schedule: Q04DX003 (ip), vehicle: water): 5 of 6 | survivor count (dose: 200.0 mg/kg/injection, schedule: Q01DX009 (ip), vehicle: saline with Tween-80): 0 of 6 | survivor count (dose: 200.0 mg/kg/injection, schedule: Q04DX003 (ip), vehicle: water): 0 of 6 | survivor count (dose: 400.0 mg/kg/injection, schedule: Q01DX009 (ip), vehicle: saline with Tween-80): 0 of 6 | survivor count [1]: 0 of 6

C=CCC1(/C(=C\CC)CCC)C(=O)NC(=O)NC1=O
survivor count (dose: 150.0 mg/kg/injection, schedule: Q01DX001 (ip), vehicle: saline): 0 of 6 | survivor count [7]: 0 of 6

CC(=O)Nc1nn[nH]n1
survivor count [8]: 6 of 6

N#Cc1cc[n+](Cc2ccccc2)cc1
survivor count [7]: 1 of 6

CC(/C=N/NC1=NCCN1)=N/NC1=NCCN1
survivor count (dose: 189.0 mg/kg/injection, schedule: Q01DX Z (ip), vehicle: carboxymethylcellulose (CMC)): 2 of 6 | survivor count (dose: 252.0 mg/kg/injection, schedule: Q01DX Z (ip), vehicle: carboxymethylcellulose (CMC)): 0 of 6

Oc1ccc(/C=N/Nc2nnc(N/N=C/c3ccc(O)cc3O)c3ccccc23)c(O)c1
T/C (dose: 20.0 mg/kg/injection, schedule: Q01DX015 (ip), vehicle: carboxymethylcellulose (CMC)): 128 % of control | survivor count (dose: 40.0 mg/kg/injection, schedule: Q01DX009 (ip), vehicle: saline): 4 of 6 | T/C (dose: 50.0 mg/kg/injection, schedule: Q01DX001 (ip), vehicle: carboxymethylcellulose (CMC)): 127 % of control | survivor count (dose: 53.0 mg/kg/injection, schedule: Q01DX015 (ip), vehicle: carboxymethylcellulose (CMC)): 5 of 6 | survivor count (dose: 89.0 mg/kg/injection, schedule: Q01DX015 (ip), vehicle: carboxymethylcellulose (CMC)): 4 of 6 | T/C (dose: 178.0 mg/kg/injection, schedule: Q01DX001 (ip), vehicle: carboxymethylcellulose (CMC)): 135 % of control | survivor count (dose: 267.0 mg/kg/injection, schedule: Q01DX001 (ip), vehicle: carboxymethylcellulose (CMC)): 3 of 6 | T/C [9]: 127 % of control | survivor count [9]: 3 of 6 | survivor count (dose: 400.0 mg/kg/injection, schedule: Q01DX001 (ip), vehicle: saline): 2 of 6

N#Cc1[nH]cnc1[N+]#N
survivor count (dose: 25.0 mg/kg/injection, schedule: Q01DX001 (ip), vehicle: other): 2 of 6 | survivor count (dose: 50.0 mg/kg/injection, schedule: Q01DX001 (ip), vehicle: other): 0 of 6 | survivor count (dose: 100.0 mg/kg/injection, schedule: Q01DX001 (ip), vehicle: other): 0 of 6 | survivor count (dose: 200.0 mg/kg/injection, schedule: Q01DX001 (ip), vehicle: other): 0 of 6 | survivor count (dose: 400.0 mg/kg/injection, schedule: Q01DX001 (ip), vehicle: other): 0 of 6

CCO/C=C1\SC(=S)N(c2ccc(C(=O)O)cc2)C1=O
survivor count [6]: 3 of 6 | survivor count (dose: 200.0 mg/kg/injection, schedule: Q01DX009 (ip), vehicle: saline sonified): 4 of 6 | survivor count (dose: 400.0 mg/kg/injection, schedule: Q01DX009 (ip), vehicle: saline sonified): 2 of 6

c1ccc2cc(-c3cc4ccccc4s3)ccc2c1
T/C [2]: 125 % of control

O=C1/C(=C\c2ccccc2)C(NC2CCCCC2)c2ccccc21 (configuration not stated)
survivor count (dose: 100.0 mg/kg/injection, schedule: Q01DX009 (ip), vehicle: Klucel (hydroxypropylcellulose) (HPC)): 0 of 6 | survivor count [3]: 0 of 6 | survivor count [8]: 0 of 6

C/C=C(C)/C=N/Nc1nnc(N/N=C/C(C)=C/C)c2ccccc12
survivor count [9]: 0 of 4

From PubChem BioAssay AID248 (DTP/NCI, 2004)
